From the M2OR odorant receptor database come the findings set out here.

Chains of the proteins cited; added tags and fusions are not shown. Chains listed by the source or under a name are the forms on record and can include a tag or linker.
OR4Q3, as listed by the source: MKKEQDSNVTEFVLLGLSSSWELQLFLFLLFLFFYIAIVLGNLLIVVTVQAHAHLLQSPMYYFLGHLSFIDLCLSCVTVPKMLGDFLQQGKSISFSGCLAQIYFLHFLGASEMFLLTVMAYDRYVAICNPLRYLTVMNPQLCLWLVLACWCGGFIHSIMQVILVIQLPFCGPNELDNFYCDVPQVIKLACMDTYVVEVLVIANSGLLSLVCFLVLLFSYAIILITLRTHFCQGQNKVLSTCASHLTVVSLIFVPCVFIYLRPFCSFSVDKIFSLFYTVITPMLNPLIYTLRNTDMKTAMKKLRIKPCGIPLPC

Structures are written as SMILES. The entries are a selection whose mix differs from that of the whole data set. The calls were merged from several studies; some rest on single wells. This is one part of the list.

What all share (conditions): stereoisomer not certain
One assay has as its system T1, OR4K3.
T1 sequence (whole entry): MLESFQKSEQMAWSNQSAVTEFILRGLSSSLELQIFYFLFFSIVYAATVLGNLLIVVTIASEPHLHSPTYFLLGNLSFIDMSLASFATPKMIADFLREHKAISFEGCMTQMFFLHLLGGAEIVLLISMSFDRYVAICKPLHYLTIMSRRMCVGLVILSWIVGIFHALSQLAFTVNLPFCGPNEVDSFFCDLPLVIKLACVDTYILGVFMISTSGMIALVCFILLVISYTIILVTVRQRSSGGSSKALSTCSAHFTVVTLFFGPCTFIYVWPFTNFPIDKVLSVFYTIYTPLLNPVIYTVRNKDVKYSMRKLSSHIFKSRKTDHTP
The procedure, abridged:
(§1)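 Values were gathered from published papers (main text and supplementary material), with extra details requested from the original authors when needed, and checked for typos and inconsistencies. Each receptor–molecule pair is called responsive (active) if the original authors judged the measured signal statistically different from baseline, and non-responsive (inactive) otherwise. Assay methods varied by source, often transient mammalian cell-line luciferase assays. Recorded details include cell line, G-protein, co-transfected protein and tags.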

The next assay deals with T2, OR4K5 (Homo sapiens) (UniProt Q8NGD3).
T2 sequence (whole entry): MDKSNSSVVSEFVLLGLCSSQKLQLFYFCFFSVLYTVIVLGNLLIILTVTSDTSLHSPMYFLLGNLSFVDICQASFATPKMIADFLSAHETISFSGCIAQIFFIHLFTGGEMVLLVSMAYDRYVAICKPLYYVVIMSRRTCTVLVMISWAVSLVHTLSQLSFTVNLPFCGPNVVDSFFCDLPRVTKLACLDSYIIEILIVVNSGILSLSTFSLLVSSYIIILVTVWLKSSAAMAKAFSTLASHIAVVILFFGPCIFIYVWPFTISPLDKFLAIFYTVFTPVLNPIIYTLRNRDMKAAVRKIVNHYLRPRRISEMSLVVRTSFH
In short, it runs like this: as §1

The test system of a further assay is T3, OR4KF.
T3 sequence (whole entry): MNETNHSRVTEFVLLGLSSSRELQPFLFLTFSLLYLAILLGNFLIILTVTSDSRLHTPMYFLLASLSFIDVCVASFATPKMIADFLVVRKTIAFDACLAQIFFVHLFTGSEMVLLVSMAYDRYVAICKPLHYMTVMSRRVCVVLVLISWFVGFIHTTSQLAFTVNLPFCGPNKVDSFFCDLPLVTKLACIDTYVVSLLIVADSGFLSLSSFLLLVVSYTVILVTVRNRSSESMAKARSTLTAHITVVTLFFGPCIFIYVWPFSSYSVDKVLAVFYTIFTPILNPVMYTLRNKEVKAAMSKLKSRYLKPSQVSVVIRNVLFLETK
The procedure, abridged: as §1

Another assay concerns T4, OR4KH.
T4 sequence (whole entry): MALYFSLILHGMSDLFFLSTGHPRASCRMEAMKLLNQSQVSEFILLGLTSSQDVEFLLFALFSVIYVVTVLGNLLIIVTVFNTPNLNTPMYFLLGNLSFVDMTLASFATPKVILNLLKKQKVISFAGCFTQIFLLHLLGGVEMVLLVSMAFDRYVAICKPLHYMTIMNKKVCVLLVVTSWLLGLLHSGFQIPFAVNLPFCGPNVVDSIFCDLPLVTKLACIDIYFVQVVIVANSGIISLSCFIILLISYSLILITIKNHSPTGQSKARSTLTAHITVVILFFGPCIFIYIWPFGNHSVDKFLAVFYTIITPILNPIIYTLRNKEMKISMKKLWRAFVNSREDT
The procedure, abridged: as §1

The next assay relates to T5, OR4L1.
T5 sequence (whole entry): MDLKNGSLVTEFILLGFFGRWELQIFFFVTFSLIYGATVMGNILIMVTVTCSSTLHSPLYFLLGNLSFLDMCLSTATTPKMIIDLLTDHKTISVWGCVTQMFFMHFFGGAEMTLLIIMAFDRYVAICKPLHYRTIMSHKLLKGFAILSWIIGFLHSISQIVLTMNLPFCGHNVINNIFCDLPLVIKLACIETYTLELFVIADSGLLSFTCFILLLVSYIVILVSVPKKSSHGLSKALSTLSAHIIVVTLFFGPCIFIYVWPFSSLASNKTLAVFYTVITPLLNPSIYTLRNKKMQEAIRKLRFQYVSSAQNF
The procedure, abridged: as §1

Another assay concerns the target T6, OR4M1 (Homo sapiens) (UniProt Q8NGD0).
T6 sequence (whole entry): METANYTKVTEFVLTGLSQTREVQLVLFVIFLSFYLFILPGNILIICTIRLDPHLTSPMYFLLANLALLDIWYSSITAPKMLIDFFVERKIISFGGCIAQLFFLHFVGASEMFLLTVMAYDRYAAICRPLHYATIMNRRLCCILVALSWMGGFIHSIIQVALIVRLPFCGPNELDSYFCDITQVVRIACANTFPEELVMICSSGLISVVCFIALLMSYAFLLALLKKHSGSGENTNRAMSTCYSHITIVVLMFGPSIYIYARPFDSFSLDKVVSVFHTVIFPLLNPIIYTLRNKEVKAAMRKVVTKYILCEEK
The procedure, abridged:
as §1

A further assay has as its target T7, OR4N2 (Homo sapiens) (UniProt Q8NGD1).
T7 sequence (whole entry): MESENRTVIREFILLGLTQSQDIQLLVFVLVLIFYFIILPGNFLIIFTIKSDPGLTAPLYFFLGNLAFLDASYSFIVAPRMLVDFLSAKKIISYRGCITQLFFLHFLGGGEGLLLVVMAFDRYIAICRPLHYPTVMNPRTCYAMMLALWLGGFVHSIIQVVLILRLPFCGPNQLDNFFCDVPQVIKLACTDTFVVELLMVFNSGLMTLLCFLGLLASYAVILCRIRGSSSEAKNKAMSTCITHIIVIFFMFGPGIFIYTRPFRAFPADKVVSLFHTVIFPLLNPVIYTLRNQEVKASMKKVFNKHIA
In short, it runs like this:
as §1

A further assay addresses T8, OR4N4 (Homo sapiens) (UniProt Q8N0Y3).
T8 sequence (whole entry): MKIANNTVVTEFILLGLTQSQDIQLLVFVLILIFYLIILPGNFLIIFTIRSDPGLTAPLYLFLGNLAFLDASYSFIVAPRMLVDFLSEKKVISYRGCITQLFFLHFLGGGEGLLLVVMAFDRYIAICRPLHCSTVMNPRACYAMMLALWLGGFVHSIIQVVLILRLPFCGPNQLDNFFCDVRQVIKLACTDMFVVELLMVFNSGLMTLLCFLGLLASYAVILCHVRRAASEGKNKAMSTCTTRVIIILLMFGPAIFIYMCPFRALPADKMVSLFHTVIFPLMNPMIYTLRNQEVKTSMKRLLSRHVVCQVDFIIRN
In short, it runs like this:
as §1

For a further assay, the target named is T9, OR4N5 (Homo sapiens) (UniProt Q8IXE1).
T9 sequence (whole entry): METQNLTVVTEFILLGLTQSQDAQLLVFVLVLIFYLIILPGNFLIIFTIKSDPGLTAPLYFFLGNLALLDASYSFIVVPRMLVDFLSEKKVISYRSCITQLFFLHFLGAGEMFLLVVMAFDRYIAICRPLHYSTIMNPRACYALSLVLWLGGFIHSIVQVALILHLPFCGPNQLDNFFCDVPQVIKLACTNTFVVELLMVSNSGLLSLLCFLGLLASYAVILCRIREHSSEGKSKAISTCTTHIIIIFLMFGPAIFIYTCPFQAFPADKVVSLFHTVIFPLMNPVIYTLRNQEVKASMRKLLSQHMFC
In short, it runs like this:
as §1

The subject of assay [1] is T10, OR4P4.
T10 sequence (whole entry): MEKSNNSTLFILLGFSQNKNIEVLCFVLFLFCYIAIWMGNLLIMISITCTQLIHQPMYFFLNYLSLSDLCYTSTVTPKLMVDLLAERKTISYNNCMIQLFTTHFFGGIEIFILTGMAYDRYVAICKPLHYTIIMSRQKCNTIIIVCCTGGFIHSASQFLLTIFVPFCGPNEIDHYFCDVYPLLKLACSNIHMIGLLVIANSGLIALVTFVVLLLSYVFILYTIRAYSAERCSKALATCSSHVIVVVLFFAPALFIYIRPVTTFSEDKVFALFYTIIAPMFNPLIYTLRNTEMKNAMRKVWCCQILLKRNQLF
The procedure, abridged:
as §1

Assay [2] relates to T11, OR4P4.
T11 sequence (whole entry): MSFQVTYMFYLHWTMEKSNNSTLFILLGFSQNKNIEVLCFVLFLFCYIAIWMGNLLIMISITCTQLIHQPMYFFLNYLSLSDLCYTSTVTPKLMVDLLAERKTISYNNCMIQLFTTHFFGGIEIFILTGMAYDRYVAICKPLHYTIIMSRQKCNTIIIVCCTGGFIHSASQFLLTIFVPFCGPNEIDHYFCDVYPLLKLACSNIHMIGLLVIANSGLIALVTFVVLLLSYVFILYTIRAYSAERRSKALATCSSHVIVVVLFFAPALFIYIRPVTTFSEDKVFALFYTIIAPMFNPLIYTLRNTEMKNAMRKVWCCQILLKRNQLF
In short, it runs like this:
as §1
The source holds these as a separate data set.

The target in a further assay is T12, OR4Q3 (Homo sapiens) (UniProt Q8NH05).
T12 sequence (whole entry): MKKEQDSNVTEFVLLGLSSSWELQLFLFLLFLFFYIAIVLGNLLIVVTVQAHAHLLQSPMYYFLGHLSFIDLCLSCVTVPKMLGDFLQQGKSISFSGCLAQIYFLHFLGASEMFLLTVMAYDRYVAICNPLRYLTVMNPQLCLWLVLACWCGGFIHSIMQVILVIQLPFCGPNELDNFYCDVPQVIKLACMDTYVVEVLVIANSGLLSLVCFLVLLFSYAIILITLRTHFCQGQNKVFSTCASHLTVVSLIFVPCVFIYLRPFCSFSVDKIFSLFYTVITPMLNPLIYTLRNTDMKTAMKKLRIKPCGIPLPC
In short, it runs like this: as §1

For another assay, the target named is T13, OR4S1 (Homo sapiens) (UniProt Q8NGB4).
T13 sequence (whole entry): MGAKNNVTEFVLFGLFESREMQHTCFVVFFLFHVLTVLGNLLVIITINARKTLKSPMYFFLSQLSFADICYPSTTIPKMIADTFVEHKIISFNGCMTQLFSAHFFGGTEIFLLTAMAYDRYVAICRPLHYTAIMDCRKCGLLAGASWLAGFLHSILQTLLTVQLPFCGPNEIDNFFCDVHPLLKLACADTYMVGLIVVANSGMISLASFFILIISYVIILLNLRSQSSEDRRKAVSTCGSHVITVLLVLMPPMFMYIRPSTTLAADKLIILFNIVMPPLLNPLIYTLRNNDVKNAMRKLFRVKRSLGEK
The procedure, abridged: as §1

The next assay deals with OR4Q3. The procedure, abridged:
as §1

On to `CCCC(=O)O`, for which the “odorant receptor agonist call” value with OR4K3, with OR4K5 (Homo sapiens), in the assay with OR4KF, with OR4KH, in the assay with OR4L1 and with OR4M1 (Homo sapiens) was “inactive” each time. The “odorant receptor agonist call” value with OR4N2 (Homo sapiens), with OR4N4 (Homo sapiens), with OR4N5 (Homo sapiens), in the assay with OR4P4 [1], in the assay with OR4P4 [2] and with OR4Q3 (Homo sapiens) was “inactive” throughout. The “odorant receptor agonist call” value in the assay with OR4S1 (Homo sapiens) is “inactive”.
As for `O=CCc1ccccc1`, the “odorant receptor agonist call” value in the assay on OR4K3, in the assay with OR4K5 (Homo sapiens), in the assay on OR4KH, with OR4L1, with OR4N4 (Homo sapiens) and with OR4N5 (Homo sapiens) was “inactive” throughout. The “odorant receptor agonist call” value in the assay with OR4P4 [1], with OR4P4 [2], in the assay with OR4Q3 (Homo sapiens) and in the assay with OR4S1 (Homo sapiens) was “inactive” in each case. Also, the “odorant receptor agonist call” value in the assay on OR4KF, with OR4M1 (Homo sapiens) and with OR4N2 (Homo sapiens) was “active” in each case.
With `CC1COCc2cc3c(cc21)C(C)(C)C(C)C3(C)C` (centres undefined), the “odorant receptor agonist call” value in the assay on OR4K3, with OR4K5 (Homo sapiens), with OR4KH, with OR4N2 (Homo sapiens), with OR4N4 (Homo sapiens) and with OR4P4 [1] was “active” each time. The “odorant receptor agonist call” value in the assay with OR4Q3 (Homo sapiens) and with OR4S1 (Homo sapiens) was “active” in each case. Further, the “odorant receptor agonist call” value in the assay on OR4KF, in the assay on OR4L1, in the assay with OR4M1 (Homo sapiens), with OR4N5 (Homo sapiens) and in the assay on OR4P4 [2] was “inactive” throughout.
With `CC12C=CCC1C1CCC3=CC(=O)CCC3(C)C1CC2` (centres undefined), the “odorant receptor agonist call” value with OR4K3, with OR4K5 (Homo sapiens), with OR4KF, with OR4KH, in the assay with OR4L1 and with OR4M1 (Homo sapiens) was “inactive” in each case. Besides, the “odorant receptor agonist call” value with OR4N2 (Homo sapiens), with OR4N4 (Homo sapiens), with OR4N5 (Homo sapiens), in the assay on OR4P4 [1], in the assay with OR4P4 [2] and with OR4Q3 (Homo sapiens) was “inactive” each time. In addition, the “odorant receptor agonist call” value in the assay on OR4Q3 and with OR4S1 (Homo sapiens) was “inactive” throughout.
Take `CC=Cc1ccc(O)c(OC)c1`: the “odorant receptor agonist call” value in the assay with OR4K3, in the assay with OR4K5 (Homo sapiens), with OR4KH, in the assay on OR4L1, with OR4M1 (Homo sapiens) and with OR4N2 (Homo sapiens) was “inactive” in each case. For the same compound, the “odorant receptor agonist call” value in the assay with OR4N4 (Homo sapiens), with OR4N5 (Homo sapiens), in the assay with OR4P4 [1], with OR4P4 [2], with OR4Q3 (Homo sapiens) and in the assay with OR4S1 (Homo sapiens) was “inactive” each time. In addition, the “odorant receptor agonist call” value in the assay with OR4KF was “active”.
`O=C1CCCCCCCCCCCCCCO1`: the “odorant receptor agonist call” value in the assay with OR4K3, with OR4K5 (Homo sapiens), in the assay on OR4KF, in the assay with OR4KH, in the assay on OR4L1 and with OR4M1 (Homo sapiens) was “inactive” throughout. In addition, the “odorant receptor agonist call” value with OR4N2 (Homo sapiens), with OR4N4 (Homo sapiens), in the assay with OR4N5 (Homo sapiens), in the assay on OR4P4 [1], with OR4P4 [2] and with OR4Q3 (Homo sapiens) was “inactive” throughout. In addition, in the assay with OR4S1 (Homo sapiens), the “odorant receptor agonist call” value is “inactive”.
